## Percent effect of library compounds

Source: ChEMBL document CHEMBL3988442, “University of Dundee, Small-Polar-MMV Screening Library” (2021).

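Whole-cell growth test on Mycobacterium tuberculosis, read after 3 days in glucose-containing 7H9 medium; the read-out is not stated. Concentration: 50 µM. The record gives no direction; compounds that gave an IC50 in retests scored well above the rest, so higher reads as more growth inhibition. Size under these conditions: about 69,000 compounds, about 760 of them at 50% or above in at least one test.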

Values are the deposited “Percent Effect”, in %. How 0% and 100% were set is not recorded. Most values in the screen are low, and negative values occur. Compounds were drawn at random from those tested, without regard to their results. Two or more numbers in one place are separate tests of the same structure; such repeats can differ widely.

For CCCS(=O)(=O)CC(=O)NC(C)c1cccc(-n2cccn2)c1 (stereo not given) the result was -8.676% and -2.619%.
For CCCn1ncc2c(C(=O)NC(C)Cn3cccn3)cc(C3CC3)nc21 (stereo not given) the result was -5.421% and 19.79%.
For O=C(O)C(F)(F)F.[H][C@@]12CCN(Cc3ccccc3F)[C@]1([H])CC[C@@H](C(=O)NC)O2 the result was 6.349%.
For CC(=O)N1CCC(NC(=O)N2CCN(c3cnccn3)CC2)CC1 the result was -5.37% and -21.7%.
For Cc1noc(C)c1CN1CCCC(c2noc(C3CC3)n2)C1 (stereo not given) the result was 0.1327%.
For O=C(O)C(F)(F)F.[H][C@]12CCN(C(=O)NCc3cccnc3)C[C@@]1([H])OCCN(C(C)=O)C2 the result was -28.69% and -0.998%.
For O=C1CC(c2ccncc2)c2c(c(C(=O)O)cn2-c2ccccc2)N1 (stereo not given) the result was 17.92%.
For c1cc(-c2cnc(NC3CC3)nc2[C@H]2CCCO2)ccn1 the result was -3.66%.
For CN(Cc1ccoc1)C(=O)Cn1ncc(N(C)C)cc1=O the result was 15.01%.
For CC(C)N(CCCNC(=O)C1CCCN(C(N)=O)C1)S(C)(=O)=O (stereo not given) the result was -12.3%.
For Cc1nccn1-c1cc(CNC(=O)N2CCSCC2)ccn1 the result was -12.03%.
For COC1COC2(CCN(C(=O)c3ccc4ccccc4c3)CC2)C1 (stereo not given) the result was -27.84%.
For c1ccc2oc(CN3CCCC(Cn4cncn4)C3)nc2c1 (stereo not given) the result was 0.4417%.
For Cc1ccoc1C(=O)N1CCCC(c2cc(C(F)(F)F)[nH]n2)C1 (stereo not given) the result was 3.794% and 14.26%.
For Cc1[nH]ncc1C(C)NCc1ccc(F)cc1 (stereo not given) the result was 10.37%.
For CSCC(CCO)NC(=O)Nc1cc(Br)ccc1C (stereo not given) the result was -2.018% and 4.248%.
For c1ccc2ncc(CC3CCNC3)cc2c1 (stereo not given) the result was 7.883%.
For O=C(O)C(F)(F)F.[H][C@]12CCN(c3ncc(C)cn3)[C@@]1([H])CCC(COCC(=O)N(C)C)O2 (stereo not given in full) the result was -18.64%.
For CN(Cc1cnccn1)C(=O)c1ccnc(OC2CCC2)c1 the result was 9.933%.
For c1ccc(NCc2cccc(OCCN3CCOCC3)c2)nc1 the result was 6.361%.
For CS(=O)(=O)N1CCOCC2(CN(Cc3ccco3)CCO2)C1.O=C(O)C(F)(F)F (stereo not given) the result was -3.556%.
For COCCCNc1ncnc2c1CCN(C(=O)CC1C=CCC1)CC2 (stereo not given) the result was 13.35%.
For CCOc1nnc(CN2CCN(CCOC)C(CC)C2)s1 (stereo not given) the result was 3.537%.
For Cc1ccsc1CN1CC2(CCN(C(=O)C3CC3)CC2)CC1C(=O)O (stereo not given) the result was -19.11%.
For CC(C)CN1CCN(C)C2(CCN(c3nccs3)CC2)C1=O.O=C(O)C(F)(F)F the result was -19.85% and -2.846%.
For CS(=O)(=O)NC(=O)c1cnc2c(cnn2C2CCCC2)c1 the result was 16.2%.
For Cc1cc(C2CCCN(C(=O)COc3cc(F)ccc3F)C2)n[nH]1 (stereo not given) the result was -2.388% and 9.899%.
For CCOc1cccc(CNC(=O)C(C)(C)C#N)c1OC(F)F the result was 19.19%.
For CSc1cc2c(cc1NC(=O)NCc1ccncc1)OCCO2 the result was -11.41% and -5.918%.
For CC(C)(C)c1nc(CN2CCc3onc(-c4cccc(F)c4)c3C2)no1 the result was 6.667%.
For CC(C)N(C)CCCNC(=O)c1cnn(C(C)(C)C)c1C(F)(F)F the result was 2.105% and 12.65%.
For CCCc1nc(C)c(C(=O)NC2CCN(c3ncccn3)CC2)s1 the result was -3.248%.
For Cc1ccc(S(=O)(=O)N(C)CC(N)=O)c(Cl)c1 the result was 32.84%.
For CCOc1ncccc1NC(=O)N1CCCC1c1cc(C)no1 (stereo not given) the result was 0.7719%.
For CN(CCCOc1ccc(F)cc1)S(=O)(=O)c1cnn(C)c1 the result was 41.53%.
For CNc1nc(CNC(=O)Nc2ccc(SC)c(F)c2)cs1 the result was 14.62%.
For CCCN(CCc1ccccn1)C(=O)Cn1cnnn1 the result was -3.053%.
For Cc1cc(C)n(CCNC(=O)c2ncc[nH]2)c(=O)n1 the result was -1.346%.
For c1ccc(CN2CCN(Cc3cnc(C4CCCCO4)nc3)CC2)cc1 (stereo not given) the result was -15.11%.
For [H][C@@]12COC[C@]1(COCC1CC1)CN(S(=O)(=O)c1cccnc1)C2 the result was 15.98% and -9.332%.
For CC(C)OC(C)c1nnc(SCC(=O)O)n1-c1ccc(F)cc1F (stereo not given) the result was 3.771%.
For CCOC(=O)c1ccc(S(=O)(=O)NCC(CC)N2CCCC2)cc1 (stereo not given) the result was -2.095%.
For [H][C@@]12CCN(Cc3ccoc3)C[C@@]1([H])O[C@@H](c1ccnc(C(C)C)n1)C2 the result was 9.096%.
For O=C(Nc1ccc2c(c1)C(=O)NC2=O)c1cccs1 the result was 21.85%.
For COc1ccc(NC(=O)CCSc2ccc3nncn3n2)c(OC)c1 the result was 8.419%.
For Cc1nc2n(n1)CC(NCc1nnc(C(C)(C)C)o1)CC2 (stereo not given) the result was 20.37%.
For O=C(COC(=O)Cc1cccs1)NCc1cccc(NC(=O)C2CC2)c1 the result was -8.114%.
For CCc1nc(CN(C)C(=O)CSC)no1 the result was -10.72%.
For Cc1ccc(C(=O)N2CCN(C(=O)Cc3ccccn3)CC2)c(C)c1 the result was -29.95%.
For COCCNC(=O)C1CN(Cc2csc(C)n2)Cc2ccnn2C1.O=C(O)C(F)(F)F (stereo not given) the result was -9.509%.
For NS(=O)(=O)c1ccc(C(=O)N2CCCC2c2ccccc2)o1 (stereo not given) the result was 10.22%.
For OC(COCc1cccs1)CN1CCC(c2ccn[nH]2)CC1 (stereo not given) the result was 8.972%.
For Cl.c1cc(CNCc2cccc3c2OCCCO3)cc(Cn2cncn2)c1 the result was -6.328%.
For Cc1ccc(C(=O)CCC(=O)N2CCC(c3nncn3C)CC2)cc1 the result was 15.35%.
For Cc1nc(CCCNC(=O)[C@H]2CNC[C@@H](C(=O)N3CCCC3)C2)sc1C the result was 10.57%.